These are yes or no findings as the source states them, for the method shown. Binding seen in cells or lysates may run through a third protein. Some results given as binding are weak or reduced against the parent protein; the word gives no strength.
Key:
[1] = target: T1, CNOT4 (human (endogenous in patient-derived DGCs)) (UniProt O95628); test: co-IP; lysates of DGCs in IP lysis buffer with protease and phosphatase inhibitors, antibodies conjugated to magnetic beads (Pierce Classic Magnetic IP/Co-IP Kit), 4 °C overnight, western blot; also in DGCs incubated with GDEs with circCMTM3 overexpression or knockdown
T1 sequence: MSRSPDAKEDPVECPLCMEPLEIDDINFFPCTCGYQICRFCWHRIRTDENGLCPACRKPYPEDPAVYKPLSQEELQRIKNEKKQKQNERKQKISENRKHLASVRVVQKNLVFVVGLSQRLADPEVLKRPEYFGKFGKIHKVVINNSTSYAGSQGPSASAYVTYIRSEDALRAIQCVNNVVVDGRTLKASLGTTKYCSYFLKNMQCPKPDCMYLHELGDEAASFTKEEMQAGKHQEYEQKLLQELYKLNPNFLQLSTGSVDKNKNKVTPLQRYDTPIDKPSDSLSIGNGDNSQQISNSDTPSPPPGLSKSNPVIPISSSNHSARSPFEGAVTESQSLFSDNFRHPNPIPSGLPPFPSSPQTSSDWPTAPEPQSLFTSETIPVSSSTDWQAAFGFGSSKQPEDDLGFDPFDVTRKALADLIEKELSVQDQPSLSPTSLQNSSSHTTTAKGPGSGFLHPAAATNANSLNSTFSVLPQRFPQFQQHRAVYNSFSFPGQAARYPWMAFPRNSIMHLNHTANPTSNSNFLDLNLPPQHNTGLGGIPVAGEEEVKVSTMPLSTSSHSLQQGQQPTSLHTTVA

Sequences of proteins named here, by UniProt entry; tags and fusion partners are left off.
UniProt O60674: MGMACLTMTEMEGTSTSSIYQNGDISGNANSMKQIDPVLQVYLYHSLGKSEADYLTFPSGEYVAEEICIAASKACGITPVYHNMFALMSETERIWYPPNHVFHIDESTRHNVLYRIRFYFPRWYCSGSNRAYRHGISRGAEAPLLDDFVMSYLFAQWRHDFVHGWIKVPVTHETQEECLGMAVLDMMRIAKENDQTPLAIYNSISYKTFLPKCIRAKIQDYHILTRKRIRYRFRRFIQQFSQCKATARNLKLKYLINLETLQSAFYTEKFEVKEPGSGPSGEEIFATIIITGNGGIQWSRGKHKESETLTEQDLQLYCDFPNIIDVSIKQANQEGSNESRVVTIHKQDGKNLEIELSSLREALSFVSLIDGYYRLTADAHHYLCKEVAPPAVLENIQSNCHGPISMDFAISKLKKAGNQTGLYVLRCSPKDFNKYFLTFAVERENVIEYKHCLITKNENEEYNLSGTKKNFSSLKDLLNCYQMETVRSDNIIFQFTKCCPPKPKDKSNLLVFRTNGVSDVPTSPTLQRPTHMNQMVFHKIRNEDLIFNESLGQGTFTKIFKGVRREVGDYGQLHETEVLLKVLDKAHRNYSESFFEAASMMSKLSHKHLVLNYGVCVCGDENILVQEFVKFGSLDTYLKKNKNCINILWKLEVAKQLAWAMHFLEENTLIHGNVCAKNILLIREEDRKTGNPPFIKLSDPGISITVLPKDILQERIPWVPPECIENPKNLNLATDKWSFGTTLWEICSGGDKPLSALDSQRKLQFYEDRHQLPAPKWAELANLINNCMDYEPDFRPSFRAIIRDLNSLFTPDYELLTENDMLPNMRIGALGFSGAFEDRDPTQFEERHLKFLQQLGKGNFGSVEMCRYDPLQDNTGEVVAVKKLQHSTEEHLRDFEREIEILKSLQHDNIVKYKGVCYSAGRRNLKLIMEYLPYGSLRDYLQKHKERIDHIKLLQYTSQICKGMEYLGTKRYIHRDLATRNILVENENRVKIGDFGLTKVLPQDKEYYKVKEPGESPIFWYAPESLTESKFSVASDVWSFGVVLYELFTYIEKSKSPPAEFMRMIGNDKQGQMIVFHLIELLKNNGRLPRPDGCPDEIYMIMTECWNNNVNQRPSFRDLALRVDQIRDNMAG
UniProt P42229: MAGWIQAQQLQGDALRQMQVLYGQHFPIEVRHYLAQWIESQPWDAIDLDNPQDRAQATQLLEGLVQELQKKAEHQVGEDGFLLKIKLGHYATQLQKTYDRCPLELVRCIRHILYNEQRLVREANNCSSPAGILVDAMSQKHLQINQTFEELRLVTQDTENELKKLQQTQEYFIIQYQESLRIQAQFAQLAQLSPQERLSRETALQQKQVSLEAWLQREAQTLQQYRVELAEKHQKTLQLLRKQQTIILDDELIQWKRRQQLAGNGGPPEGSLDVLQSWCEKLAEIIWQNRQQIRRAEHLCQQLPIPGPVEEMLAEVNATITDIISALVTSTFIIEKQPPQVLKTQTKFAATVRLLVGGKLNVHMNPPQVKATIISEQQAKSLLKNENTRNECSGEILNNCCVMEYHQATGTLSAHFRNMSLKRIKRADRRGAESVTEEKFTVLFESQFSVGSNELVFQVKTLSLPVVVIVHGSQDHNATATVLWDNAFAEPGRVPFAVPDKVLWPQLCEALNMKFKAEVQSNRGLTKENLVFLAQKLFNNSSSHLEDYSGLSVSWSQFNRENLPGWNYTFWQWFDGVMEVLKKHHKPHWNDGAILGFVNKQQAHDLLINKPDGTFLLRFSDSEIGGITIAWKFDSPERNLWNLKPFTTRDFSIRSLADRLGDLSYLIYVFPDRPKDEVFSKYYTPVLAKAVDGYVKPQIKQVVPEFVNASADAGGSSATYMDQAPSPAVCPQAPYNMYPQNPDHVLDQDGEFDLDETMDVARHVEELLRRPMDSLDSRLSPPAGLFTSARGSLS
UniProt P51692: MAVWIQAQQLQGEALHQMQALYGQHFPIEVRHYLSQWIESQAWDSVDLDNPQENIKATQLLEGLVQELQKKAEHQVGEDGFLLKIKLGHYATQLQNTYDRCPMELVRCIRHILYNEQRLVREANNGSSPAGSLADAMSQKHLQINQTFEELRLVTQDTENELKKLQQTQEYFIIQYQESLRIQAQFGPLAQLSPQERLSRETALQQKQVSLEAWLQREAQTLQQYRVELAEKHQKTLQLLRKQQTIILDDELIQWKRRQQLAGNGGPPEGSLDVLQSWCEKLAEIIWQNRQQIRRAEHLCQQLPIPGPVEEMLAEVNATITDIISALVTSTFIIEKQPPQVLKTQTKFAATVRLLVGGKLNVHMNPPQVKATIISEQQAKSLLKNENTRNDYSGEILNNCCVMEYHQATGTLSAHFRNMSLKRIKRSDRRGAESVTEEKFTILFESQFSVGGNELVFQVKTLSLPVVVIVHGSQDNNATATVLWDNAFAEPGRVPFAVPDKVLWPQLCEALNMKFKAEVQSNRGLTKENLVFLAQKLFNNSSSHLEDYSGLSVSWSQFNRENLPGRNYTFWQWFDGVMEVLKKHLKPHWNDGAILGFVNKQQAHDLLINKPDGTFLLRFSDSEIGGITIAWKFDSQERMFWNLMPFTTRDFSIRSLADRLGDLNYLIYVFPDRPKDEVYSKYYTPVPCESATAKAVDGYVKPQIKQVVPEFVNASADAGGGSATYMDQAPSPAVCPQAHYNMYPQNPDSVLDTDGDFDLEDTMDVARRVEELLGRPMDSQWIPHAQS

[2] = target: JAK2 (human (endogenous in patient-derived DGCs)) (UniProt O60674); test: as above

binding [1]	binding [2]	Substance
binds	binds	STAT5A (from UniProt P42229 1-794)
binds	binds	STAT5B (from UniProt P51692 1-787)

— paper PMC11413784
